From patent publication US20050222147A1, “Process for the preparation of morpholine derivatives and intermediates therefore” (priority 2000, published 2005)
Some entries share one result that the patent states for a list of compounds.

Biological target: T1, CCR-3 (Homo sapiens, UniProt P51677)
T1 construct: expressed in transfected cells
T1 sequence (P51677 1-355): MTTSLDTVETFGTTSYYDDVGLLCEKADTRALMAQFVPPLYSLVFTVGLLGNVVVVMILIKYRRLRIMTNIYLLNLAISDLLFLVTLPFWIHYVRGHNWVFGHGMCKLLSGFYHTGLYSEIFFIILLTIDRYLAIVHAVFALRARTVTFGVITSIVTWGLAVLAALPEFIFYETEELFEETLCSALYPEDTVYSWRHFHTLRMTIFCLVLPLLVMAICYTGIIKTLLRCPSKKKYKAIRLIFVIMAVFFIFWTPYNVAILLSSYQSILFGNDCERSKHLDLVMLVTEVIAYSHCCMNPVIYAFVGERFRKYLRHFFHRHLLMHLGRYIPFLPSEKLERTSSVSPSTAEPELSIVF
Assay: CCR-3 competition binding SPA (scintillation proximity assay)
Details: inhibition of [125I] eotaxin binding to membranes from K562 cells stably expressing CCR-3
Experimental: A CCR-3 competition binding SPA (scintillation proximity assay) was used to assess the affinity of novel compounds for CCR-3. Membranes prepared from K562 cells stably expressing CCR-3 (2.51 μg/well) were mixed with 0.25 mg/well wheat-germ agglutinin SPA beads (Amersham) and incubated in binding buffer (HEPES 50 mM, CaCl2 1 mM, MgCl2 5 mM, 0.5% BSA) at 4° C. for 1.5 hr. Following incubation, 20 pM of [^125I) eotaxin (Amersham) and increasing concentrations of compound (1 pM to 30 μM) were added and incubated in a 96 well plate for 2 hr at 22° C. then counted on a Microbeta plate counter. The total assay volume was 100 μl. Competition binding data were analysed by fitting the data with a four parameter logistic equation. Data are presented as the mean pIC50 values (negative logarithm of the concentration of compound which inhibits [^125I] eotaxin binding by 50%) from at least two experiments.

Row | SMILES | pIC50 value in CCR-3 binding assay (assay (a))
1 | O=C(Cc1ccc([N+](=O)[O-])cc1)NCC1CN(Cc2ccc(Cl)c(Cl)c2)CCO1 (stereo not shown) [Example 88, N-{[4-(3,4-dichlorobenzyl)morpholin-2-yl]methyl}-2-(4-nitrophenyl)acetamide] | greater than 5.0
2 | O=C(Cc1cccc([N+](=O)[O-])c1)NCC1CN(Cc2ccc(Cl)c(Cl)c2)CCO1 (stereo not shown) [Example 89, N-{[4-(3,4-dichlorobenzyl)morpholin-2-yl]methyl}-2-(3-nitrophenyl)acetamide] | greater than 5.0
3 | CC(=O)Nc1cccc(CC(=O)NCC2CN(Cc3cccc(F)c3)CCO2)c1 (stereo not shown) [Example 90, 2-[3-(acetylamino)phenyl]-N-{[4-(3-fluorobenzyl)morpholin-2-yl]methyl}acetamide] | greater than 5.0
4 | CS(=O)(=O)Nc1ccc(CC(=O)NCC2CN(Cc3cccc(F)c3)CCO2)cc1 (stereo not shown) [Example 91, N-{[4-(3-fluorobenzyl)morpholin-2-yl]methyl}-2(4-[(methylsulfonyl)amino]phenyl}acetamide] | greater than 5.0
5 | CC(=O)Nc1cccc(CC(=O)NCC2CN(Cc3ccc(F)c(F)c3)CCO2)c1 (stereo not shown) [Example 92, 2-[3-(acetylamino)phenyl]-N-{[4-(3,4-difluorobenzyl)morpholin-2-yl]methyl}acetamide] | greater than 5.0
6 | CC(=O)Nc1ccc(CC(=O)NCC2CN(Cc3ccc(F)c(F)c3)CCO2)cc1 (stereo not shown) [Example 93, 2-[4-(acetylamino)phenyl]-N-{[4-(3,4-difluorobenzyl)morpholin-2-yl]methyl}acetamide] | greater than 5.0
7 | O=C(Cc1csc(-c2cnccn2)n1)NCC1CN(Cc2ccc(F)c(F)c2)CCO1 (stereo not shown) [Example 94, N-{[4-(3,4-difluorobenzyl)morpholin-2-yl]methyl}-2-(2-pyrazin-2-yl-1,3-thiazol-4-yl)acetamide] | greater than 5.0
8 | CS(=O)(=O)Nc1cccc(CC(=O)NCC2CN(Cc3ccc(F)c(F)c3)CCO2)c1 (stereo not shown) [Example 95, N-{[4-(3,4-difluorobenzyl)morpholin-2-yl]methyl}-2-{3-[(methylsulfonyl)amino]phenyl}acetamide] | greater than 5.0
9 | CS(=O)(=O)c1cccc(CC(=O)NCC2CN(Cc3ccc(F)c(F)c3)CCO2)c1 (stereo not shown) [Example 96, N-{[4-(3,4-difluorobenzyl)morpholin-2-yl]methyl}-2-[3-(methylsulfonyl)phenyl]acetamide] | greater than 5.0
10 | CS(=O)(=O)c1ccc(CC(=O)NCC2CN(Cc3cccc(Cl)c3)CCO2)cc1 (stereo not shown) [Example 97, N-{[4-(3-chlorobenzyl)morpholin-2-yl]methyl}-2-[4-(methylsulfonyl)phenyl]acetamide] | greater than 5.0
11 | CS(=O)(=O)c1cccc(CC(=O)NCC2CN(Cc3cccc(Cl)c3)CCO2)c1 (stereo not shown) [Example 98, N-{[4-(3-chlorobenzyl)morpholin-2-yl]methyl}-2-[3-(methylsulfonyl)phenyl]acetamide] | greater than 5.0
12 | CC(=O)Nc1cccc(CC(=O)NCC2CN(Cc3ccc(F)cc3)CCO2)c1 (stereo not shown) [Example 99, 2-[3-(acetylamino)phenyl]-N-{[4-(4-fluorobenzyl)morpholin-2-yl]methyl}acetamide] | greater than 5.0
13 | CC(=O)Nc1ccc(CC(=O)NCC2CN(Cc3ccc(F)cc3)CCO2)cc1 (stereo not shown) [Example 100, 2-[4-(acetylamino)phenyl]-N-{[4-(4-fluorobenzyl)morpholin-2-yl]methyl}acetamide] | greater than 5.0
14 | O=C(Cc1csc(-c2cnccn2)n1)NCC1CN(Cc2ccc(F)cc2)CCO1 (stereo not shown) [Example 101, N-{[4-(4-fluorobenzyl)morpholin-2-yl]methyl}-2-(2-pyrazin-2-yl-1,3-thiazol-4-yl)acetamide] | greater than 5.0
15 | CS(=O)(=O)c1ccc(CC(=O)NCC2CN(Cc3cccc(Cl)c3Cl)CCO2)cc1 (stereo not shown) [Example 102, N-{[4-(2,3-dichlorobenzyl)morpholin-2-yl]methyl}-2-[4-(methylsulfonyl)phenyl]acetamide] | greater than 5.0
16 | CC(=O)Nc1cccc(CC(=O)NCC2CN(Cc3cccc(Cl)c3Cl)CCO2)c1 (stereo not shown) [Example 103, 2-[3-(acetylamino)phenyl]-N-{[4-(2,3-dichlorobenzyl)morpholin-2-yl]methyl}acetamide] | greater than 5.0

Row | SMILES | pIC50 value in CCR-3 binding assay (assay (a))
17 | CS(=O)(=O)Nc1ccc(CC(=O)NCC2CN(Cc3cccc(Cl)c3Cl)CCO2)cc1 (stereo not shown) [Example 104, N-{[4-(2,3-dichlorobenzyl)morpholin-2-yl]methyl}-2-{4-[(methylsulfonyl)amino]phenyl}acetamide] | greater than 5.0
18 | CNC(=O)Nc1ccc(CC(=O)NCC2CN(Cc3cccc(Cl)c3Cl)CCO2)cc1 (stereo not shown) [Example 105, N-{[4-(2,3-dichlorobenzyl)morpholin-2-yl]methyl}-2-(4-{[(methylamino)carbonyl]amino}phenyl)acetamide] | greater than 5.0
19 | O=C(Cc1csc(-c2cnccn2)n1)NCC1CN(Cc2cccc(Cl)c2Cl)CCO1 (stereo not shown) [Example 106, N-{[4-(2,3-dichlorobenzyl)morpholin-2-yl]methyl}-2-(2-pyrazin-2-yl-1,3-thiazol-4-yl)acetamide] | greater than 5.0
20 | CS(=O)(=O)c1ccc(CC(=O)NCC2CN(Cc3ccc(Cl)s3)CCO2)cc1 (stereo not shown) [Example 107, N-({4-[(5-chlorothien-2-yl)methyl]morpholin-2-yl}methyl)-2-[4-(methylsulfonyl)phenyl]acetamide] | greater than 5.0
21 | CC(=O)Nc1cccc(CC(=O)NCC2CN(Cc3ccc(Cl)s3)CCO2)c1 (stereo not shown) [Example 108, 2-[3-(acetylamino)phenyl]-N-({4-[(5-chlorothien-2-yl)methyl]morpholin-2-yl}methyl)acetamide] | greater than 5.0
22 | CS(=O)(=O)Nc1ccc(CC(=O)NCC2CN(Cc3ccc(Cl)s3)CCO2)cc1 (stereo not shown) [Example 109, N-({4-[(5-chlorothien-2-yl)methyl]morpholin-2-yl}methyl)-2-{4-[(methylsulfonyl)amino]phenyl}acetamide] | greater than 5.0
23 | O=C(Cc1csc(-c2cnccn2)n1)NCC1CN(Cc2ccc(Cl)s2)CCO1 (stereo not shown) [Example 110, N-({4-[(5-chlorothien-2-yl)methyl]morpholin-2-yl}methyl)-2-(2-pyrazin-2-yl-1,3-thiazol-4-yl)acetamide] | greater than 5.0
24 | CC(=O)Nc1cccc(CC(=O)NCC2CN(Cc3cccc(Cl)c3)CCO2)c1 (stereo not shown) [Example 111, 2-[3-(acetylamino)phenyl]-N-{[4-(3-chlorobenzyl)morpholin-2-yl]methyl}acetamide] | greater than 5.0
25 | CS(=O)(=O)Nc1ccc(CC(=O)NCC2CN(Cc3cccc(Cl)c3)CCO2)cc1 (stereo not shown) [Example 112, N-{[4-(3-chlorobenzyl)morpholin-2-yl]methyl}-2-{4-[(methylsulfonyl)amino]phenyl}acetamide] | greater than 5.0
26 | CC(=O)Nc1ccc(CC(=O)NCC2CN(Cc3cccc(Cl)c3)CCO2)cc1 (stereo not shown) [Example 113, 2-[4-(acetylamino)phenyl]-N-{[4-(3-chlorobenzyl)morpholin-2-yl]methyl}acetamide] | greater than 5.0
27 | CNC(=O)Nc1ccc(CC(=O)NCC2CN(Cc3cccc(Cl)c3)CCO2)cc1 (stereo not shown) [Example 114, N-{[4-(3-chlorobenzyl)morpholin-2-yl]methyl}-2-(4-{[(methylamino)carbonyl]amino}phenyl)acetamide] | greater than 5.0
28 | O=C(Cc1csc(-c2cnccn2)n1)NCC1CN(Cc2cccc(Cl)c2)CCO1 (stereo not shown) [Example 115, N-{[4-(3-chlorobenzyl)morpholin-2-yl]methyl}-2-(2-pyrazin-2-yl-1,3-thiazol-4-yl)acetamide] | greater than 5.0
29 | CC(=O)Nc1ccc(CC(=O)NCC2CN(Cc3cccc(Cl)c3Cl)CCO2)cc1 (stereo not shown) [Example 116, 2-[4-(acetylamino)phenyl]-N-{[4-(2,3-dichlorobenzyl)morpholin-2-yl]methyl}acetamide] | greater than 5.0
30 | CS(=O)(=O)c1cccc(CC(=O)NCC2CN(Cc3cccc(Cl)c3Cl)CCO2)c1 (stereo not shown) [Example 117, N-{[4-(2,3-dichlorobenzyl)morpholin-2-yl]methyl}-2-[3-(methylsulfonyl)phenyl]acetamide] | greater than 5.0
31 | NS(=O)(=O)c1ccc(CC(=O)NCC2CN(Cc3ccc(Cl)c(Cl)c3)CCO2)cc1 (stereo not shown) [Example 118, 2-[4-(aminosulfonyl)phenyl]-N-{[4-(3,4-dichlorobenzyl)morpholin-2-yl]methyl}acetamide] | greater than 5.0
